Drawing on article PMC8805966, this text covers binding for one substance.

Chains of the proteins cited; added tags and fusions are not shown.
UniProt Q8WUY9: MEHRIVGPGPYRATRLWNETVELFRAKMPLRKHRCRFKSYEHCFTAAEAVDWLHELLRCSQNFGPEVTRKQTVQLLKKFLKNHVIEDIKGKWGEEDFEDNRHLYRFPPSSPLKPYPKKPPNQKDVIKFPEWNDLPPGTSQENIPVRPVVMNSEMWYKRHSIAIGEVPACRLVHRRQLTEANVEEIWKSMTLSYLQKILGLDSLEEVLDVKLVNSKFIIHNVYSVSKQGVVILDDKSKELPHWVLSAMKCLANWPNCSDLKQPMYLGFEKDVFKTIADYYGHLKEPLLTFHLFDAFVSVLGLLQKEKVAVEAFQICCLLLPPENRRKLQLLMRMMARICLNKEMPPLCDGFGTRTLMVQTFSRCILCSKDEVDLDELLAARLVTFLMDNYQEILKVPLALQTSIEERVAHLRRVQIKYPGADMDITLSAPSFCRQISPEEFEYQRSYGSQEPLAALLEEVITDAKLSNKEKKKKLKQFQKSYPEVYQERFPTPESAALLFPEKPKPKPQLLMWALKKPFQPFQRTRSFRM

No constants are given. Whether binding was seen depends on the method and setting. In cells and extracts the contact can be indirect. Some entries that bind do so weakly or less than the wild type.

This assay has as its target T1, kinesin family member 23 (KIF23) (human (endogenous in HCCLM3)) (UniProt Q02241).
T1 sequence: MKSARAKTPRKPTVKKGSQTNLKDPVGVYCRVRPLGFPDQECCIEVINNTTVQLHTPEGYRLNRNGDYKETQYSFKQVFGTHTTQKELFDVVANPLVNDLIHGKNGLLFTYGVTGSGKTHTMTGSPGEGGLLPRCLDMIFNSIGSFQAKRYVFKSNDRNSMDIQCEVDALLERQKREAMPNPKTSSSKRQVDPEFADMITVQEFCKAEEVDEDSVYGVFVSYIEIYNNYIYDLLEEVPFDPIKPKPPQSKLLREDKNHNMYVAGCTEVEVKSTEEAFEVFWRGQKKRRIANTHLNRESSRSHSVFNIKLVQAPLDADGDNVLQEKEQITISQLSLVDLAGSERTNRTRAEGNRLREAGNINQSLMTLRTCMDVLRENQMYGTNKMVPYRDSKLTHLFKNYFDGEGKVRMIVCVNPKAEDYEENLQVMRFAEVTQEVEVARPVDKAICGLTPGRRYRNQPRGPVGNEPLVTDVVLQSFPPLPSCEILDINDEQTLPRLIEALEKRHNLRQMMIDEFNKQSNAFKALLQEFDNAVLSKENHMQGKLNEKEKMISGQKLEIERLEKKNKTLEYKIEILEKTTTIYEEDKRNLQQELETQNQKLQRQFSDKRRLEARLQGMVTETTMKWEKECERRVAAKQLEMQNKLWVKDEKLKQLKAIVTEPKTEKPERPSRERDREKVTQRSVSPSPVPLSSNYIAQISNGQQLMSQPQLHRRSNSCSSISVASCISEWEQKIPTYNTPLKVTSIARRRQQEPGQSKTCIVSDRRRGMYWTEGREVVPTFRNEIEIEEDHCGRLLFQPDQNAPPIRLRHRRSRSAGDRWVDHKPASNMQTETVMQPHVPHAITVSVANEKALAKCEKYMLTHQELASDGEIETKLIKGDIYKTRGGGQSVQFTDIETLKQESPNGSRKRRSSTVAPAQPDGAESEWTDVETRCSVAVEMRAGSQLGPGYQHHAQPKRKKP
Briefly: co-IP; HCCLM3 cells lysed in RIPA buffer with protease inhibitors; 2 ug KIF23 or IgG antibody overnight at 4°C, protein A agarose beads 2 h at 4°C, three washes with lysis buffer; Western blot for DEPDC1B.

Regarding “DEP domain containing 1B (DEPDC1B) (from UniProt Q8WUY9 1-529)”, the binding entry is recorded as “binds”.
